{
  "source": "PubChem BioAssay AID493014",
  "about": "(National Center for Advancing Translational Sciences (NCATS), 2011)",
  "note": "The whole screen tested about 340,000 compounds, of which about 170 (0.05%) were called active. Inconclusive results, whose numbers are uncertain, are shown with a selection of clear calls. Calls come from the whole dose curve; as a rule, active = well fitted inhibition curve with a large enough effect in the signal ratio, with a control signal flat (not every such curve was filed as active); inconclusive = small, poorly fitted or top-dose-only effect, or effect the other way, or a change in a side signal; inactive = flat fitted curve, though single readings scatter; the % refers to the signal ratio. Where the call is inconclusive, the potency comes from a doubtful curve fit. Potency is the fitted concentration of half-maximal effect.",
  "data": [
    {"assay": "qHTS Assay to Find Inhibitors of Chronic Active B-Cell Receptor Signaling;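 for activity change, negative = inhibition: plate controls were basal doxycycline-induced cells for no effect and cells given 10 µM MG132 for full effect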", "conditions": "ABC-DLBCL IkBa-CBG/CBR reporter, luminescence ratio (green luciferase fused to IkBa over red control in TMD8 lymphoma cells), 4 h; activity change, negative = inhibition: at 46.1 µM (top of the series)", "method_in_brief": "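TMD8 ABC-DLBCL cells carrying doxycycline-inducible green luciferase fused to IkappaBalpha plus unfused red luciferase were exposed to compounds (up to 46 uM) for 4 hrs at 37C. Activity came from the overlap-corrected green/red luminescence ratio.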", "values": [
      {"smiles": "Oc1ccc2ccccc2c1/C=N/c1nccs1", "Potency": "inconclusive: 5.01 µM [falling, partial curve]"},
      {"smiles": "CCOC(=O)Cc1csc(NC(=S)NC(=O)c2cc(OC)c(OC)c(OC)c2)n1", "activity change, negative = inhibition": "inconclusive: -4.32%"},
      {"smiles": "C=CCN(CC=C)S(=O)(=O)c1ccc(NC(=S)NC(=O)Cc2ccc(OC)cc2)cc1", "activity change, negative = inhibition": "inactive"},
      {"smiles": "O=C(c1ccc(S(=O)(=O)Cc2ccccc2F)c([N+](=O)[O-])c1)N1CCCCCC1", "Potency": "inconclusive: 1.41 µM [rising, full curve, poor fit]"},
      {"smiles": "Cc1cc(C)c2c(c1)NC(c1cc3c(cc1Br)OCO3)C1CC=CC21", "note": "(configuration not stated)", "Potency": "inconclusive: 7.31 µM [rising, partial curve, poor fit]"},
      {"smiles": "Cc1cccc(OCC(=O)NCC(=O)N/N=C/c2ccc([N+](=O)[O-])cc2)c1", "activity change, negative = inhibition": "inactive"},
      {"smiles": "COc1ccc(OC)c(Nc2c3ccccc3nc3ccccc23)c1", "activity change, negative = inhibition": "inconclusive: -28.9%"},
      {"smiles": "Cc1cc(C(F)F)n2ncc(C(=O)NCCc3ccccc3Cl)c2n1", "activity change, negative = inhibition": "inconclusive: 17.6%"},
      {"smiles": "COc1ccc(OC)c(-n2cc3c(=O)n(C)c(=O)n(C)c3c2)c1", "activity change, negative = inhibition": "inconclusive: -1.45%"},
      {"smiles": "Cc1ccc2c(c1)c(N=O)c(O)n2Cc1ccc(Cl)cc1", "Potency": "inconclusive: 14.1 µM [falling, partial curve, poor fit]"},
      {"smiles": "COc1cc(C(=O)Nc2nc(OC)c(-c3ccccc3)c(OC)n2)cc(OC)c1OC", "activity change, negative = inhibition": "inconclusive: 6.23%"},
      {"smiles": "O=C(Nc1ccc(F)cc1F)c1ccc(-n2cccn2)nc1", "Potency": "inconclusive: 17.8 µM [falling, partial curve]"},
      {"smiles": "C=CCN(c1ccccc1)S(=O)(=O)c1cccc(C(=O)Nc2ccc(N3CCOCC3)cc2)c1", "activity change, negative = inhibition": "inactive"},
      {"smiles": "O=C1c2cccnc2C(O)N1Cc1ccc(F)cc1", "note": "(configuration not stated)", "activity change, negative = inhibition": "inactive"},
      {"smiles": "Cc1ccc2oc(C(=O)N(C)Cc3ccc(C)o3)c(C)c2c1", "activity change, negative = inhibition": "inactive"},
      {"smiles": "O=[N+]([O-])c1cc(Cl)cc(/C=N/n2cnnc2)c1O", "activity change, negative = inhibition": "inactive"},
      {"smiles": "CCOc1ccc(NS(=O)(=O)c2ccc(OC)c(C)c2)cc1", "activity change, negative = inhibition": "inconclusive: 1.01%"},
      {"smiles": "CCN(CC)c1ccc(/C=N/NC(=O)c2ccc3nc[nH]c3c2)cc1", "activity change, negative = inhibition": "inconclusive: -3.02%"},
      {"smiles": "COc1ccccc1/C=C1\\SC(=S)N(CCC(=O)N2CCN(C)CC2)C1=O", "Potency": "inconclusive: 3.98 µM [falling, single point]"},
      {"smiles": "CC1(C)Cc2c(cnn2-c2ccccc2)-c2c1c1ccccc1n2CC(O)CCl", "note": "(configuration not stated)", "Potency": "inconclusive: 29.1 µM [rising, single point]"},
      {"smiles": "COc1ccccc1N1CCN(c2nc(N)c(C#N)c(CC#N)c2C#N)CC1", "activity change, negative = inhibition": "inconclusive: -16.2%"},
      {"smiles": "O=C(Nc1ccc2c(c1)OCCO2)c1ccc(Cl)c([N+](=O)[O-])c1", "activity change, negative = inhibition": "inconclusive: -5.09%"},
      {"smiles": "Cc1ccc(NC(=O)CN2C(=O)NC3(CCCCCCC3)C2=O)cc1C", "activity change, negative = inhibition": "inconclusive: -1.35%"},
      {"smiles": "O=C(Nc1ccc2c(c1)CCC2)C1CCCN(c2ncccn2)C1", "note": "(configuration not stated)", "activity change, negative = inhibition": "inactive"},
      {"smiles": "Cc1ccc(NS(=O)(=O)c2ccc(C(=O)NCc3cccnc3)cc2)cc1", "activity change, negative = inhibition": "inconclusive: 2.85%"},
      {"smiles": "Cc1ccc(-n2cccc2/C=C2/C(=N)N3C(=NC2=O)SN=C3S(C)(=O)=O)cc1Cl", "Potency": "inconclusive: 16.4 µM [activator, single point]"},
      {"smiles": "COc1ccc(/C=N/N=C2/NC(=O)C(CC(=O)O)S2)cc1OCc1ccc(Cl)cc1Cl", "note": "(configuration not stated)", "Potency": "inconclusive: 18.4 µM [rising, partial curve, poor fit]"},
      {"smiles": "Cc1ccccc1-n1nc2c(c1NC(=O)C(C)(C)C)CS(=O)(=O)C2", "activity change, negative = inhibition": "inconclusive: 4.76%"},
      {"smiles": "Cc1cccc(C2=NN(c3ccc(Br)cc3)[C@@H](C(=O)N3CCOC3=O)[C@@H]2C)c1", "activity change, negative = inhibition": "inactive"},
      {"smiles": "O=C(O)CN1CCN(Cc2ccc(Cl)cc2)C1=O", "activity change, negative = inhibition": "inconclusive: 2.62%"},
      {"smiles": "COc1cccc(N/N=C/c2cccc(Br)c2O)c1", "Potency": "inconclusive: 11.2 µM [falling, partial curve, poor fit]"},
      {"smiles": "COc1ccc(C(=O)/C=C/Sc2nc3ccccc3o2)cc1", "activity change, negative = inhibition": "inconclusive: 6.09%"},
      {"smiles": "Cc1oc(-c2ccccc2)nc1C(=O)N1CCN(c2ccc(F)cc2)CC1", "activity change, negative = inhibition": "inactive"},
      {"smiles": "CCC(CC)C(=O)N1CCN(Cc2nc3ccccc3c(=O)[nH]2)CC1", "activity change, negative = inhibition": "inconclusive: -16.8%"},
      {"smiles": "Cc1ccc(CCNC(=O)C2CCCN(S(=O)(=O)c3cccs3)C2)cc1", "note": "(configuration not stated)", "activity change, negative = inhibition": "inconclusive: -21.3%"},
      {"smiles": "C#CCOCCOCCOCCNc1nc(N2CCN(C(=O)CCCCCCCCCCNC(=O)[C@@H](CCC(=O)O)n3cc(CCCCCN)nn3)CC2)nc(N2CCN(C(=O)CCCCCCCCCCNC(=O)[C@@H](CCC(=O)O)n3cc(CCCCCN)nn3)CC2)n1", "activity change, negative = inhibition": "inactive"},
      {"smiles": "NS(=O)(=O)c1ccc(N=Cc2c(O)n(-c3nccs3)c(=O)c3ccccc23)cc1", "Potency": "inconclusive: 10 µM [rising, partial curve, poor fit]"},
      {"smiles": "CCN1/C(=C\\c2ccc3ccccc3[n+]2CC)Sc2cc(C)ccc21", "activity change, negative = inhibition": "inconclusive: 27.7%"},
      {"smiles": "COc1ccc(C(=O)N/N=C\\c2ccc(OC)c(COc3ccccc3Br)c2)c(OC)c1", "Potency": "inconclusive: 2.24 µM [falling, full curve]"},
      {"smiles": "Cc1nc(N2CCOCC2)c2c3c(sc2n1)CCC3", "activity change, negative = inhibition": "inactive"},
      {"smiles": "COCCn1c(SC(C)C(=O)NC2CC2)nnc1-c1cccc(C)c1", "note": "(configuration not stated)", "activity change, negative = inhibition": "inconclusive: 5.02%"},
      {"smiles": "Cc1ccc(C(=O)NNC(=O)Cc2csc(-c3csc(C)n3)n2)cc1", "activity change, negative = inhibition": "inconclusive: 20.1%"},
      {"smiles": "CCc1ccc(Cn2nnc(C(=O)Nc3cccc(C)c3)c2N)cc1", "activity change, negative = inhibition": "inconclusive: 8.76%"},
      {"smiles": "Cc1c(OCC(=O)NCc2ccncc2)ccc2c3c(c(=O)oc12)CCCC3", "activity change, negative = inhibition": "inconclusive: 3.59%"},
      {"smiles": "Cc1nc(C(=O)N2CCCC(C(=O)c3cccc(OC(C)C)c3)C2)cs1", "note": "(configuration not stated)", "activity change, negative = inhibition": "inconclusive: 0.964%"},
      {"smiles": "CC(Nc1nc(-c2cccnc2)nc2ccccc12)c1ccc(F)cc1", "note": "(configuration not stated)", "activity change, negative = inhibition": "inconclusive: 16.2%"},
      {"smiles": "Cc1cc(C)c2cccc(NC(=S)NC(=O)c3ccccc3)c2n1", "Potency": "inconclusive: 0.316 µM [falling, partial curve, poor fit]"},
      {"smiles": "O=C(NCC1CCCO1)c1cc2cc(Cl)ccc2[nH]1", "note": "(configuration not stated)", "activity change, negative = inhibition": "inconclusive: 0.764%"},
      {"smiles": "COc1cccc(NC(=O)CCN2CCN(C)CC2)c1", "activity change, negative = inhibition": "inconclusive: 2.12%"},
      {"smiles": "COc1cc(/C=C/C(=O)OCC(=O)NCCN2C(=O)CSC2=O)ccc1OCC#N", "Potency": "inconclusive: 29.1 µM [falling, partial curve, poor fit]"},
      {"smiles": "Cc1ccc(N2C(=O)C(Cl)=C(NCc3ccccc3)C2=O)c(C)c1", "activity change, negative = inhibition": "inconclusive: 5.22%"},
      {"smiles": "C/C(=N\\Nc1nc2ccccc2[nH]1)c1ccc2c(c1)OCCO2", "Potency": "inconclusive: 31.6 µM [rising, single point]"},
      {"smiles": "Cc1nc(Nc2nc(CSc3ccc(Cl)cc3)cc(=O)[nH]2)nc2ccccc12", "activity change, negative = inhibition": "inactive"},
      {"smiles": "Cc1ccc(NC(=O)Cc2csc(-c3ccccc3)n2)cc1F", "Potency": "inconclusive: 14.6 µM [rising, partial curve, poor fit]"},
      {"smiles": "CC(C)(CO)NS(=O)(=O)c1ccc2c(c1)Cc1cc(S(=O)(=O)NC(C)(C)CO)ccc1-2", "activity change, negative = inhibition": "inconclusive: 1.95%"},
      {"smiles": "COC(=O)c1ccc2nc(NC(=O)C3CC3)sc2c1", "activity change, negative = inhibition": "inconclusive: -12.5%"},
      {"smiles": "CN=C1c2cc3c(Br)c(OC)ccc3n2CCN1C", "activity change, negative = inhibition": "inconclusive: 8.32%"},
      {"smiles": "Cc1cc(=O)[nH]c(SCC(=O)NCC2CCCCC2)c1C#N", "activity change, negative = inhibition": "inconclusive: 12.4%"},
      {"smiles": "C=CCNC(=O)C(=O)NCCCN1CCOCC1", "activity change, negative = inhibition": "inactive"},
      {"smiles": "CC(C)=CCC/C(C)=C/CNC(=O)C[C@H]1C[C@H](C(=O)N(C(C)C)C(C)C)[C@@]2(C)c3[nH]c4cc(CCC(=O)N(C)C)ccc4c3CCN2C1=O", "Potency": "inconclusive: 20.6 µM [falling, single point]"},
      {"smiles": "Nn1c(Nc2ccccc2)nc2ccccc21", "activity change, negative = inhibition": "inactive"},
      {"smiles": "COc1cccc2c1O/C(=N\\O)C(C(=O)Nc1ccc(C)cc1)C2", "note": "(configuration not stated)", "Potency": "inconclusive: 20 µM [falling, single point]"},
      {"smiles": "Cc1cc(/C=N/NC(=O)c2ccncc2)c(C)n1-c1ccccc1", "activity change, negative = inhibition": "inactive"},
      {"smiles": "CC(=O)Nc1ccc(NC(=O)c2cc(-c3ccc(C)cc3O)n[nH]2)cc1", "Potency": "inconclusive: 17.8 µM [falling, partial curve]"},
      {"smiles": "COc1ccc(S(=O)(=O)N(C)CC(=O)NCc2ccccc2)cc1OC", "activity change, negative = inhibition": "inactive"},
      {"smiles": "COc1ccc(N2CCN(c3ccc(C(=O)O)cc3[N+](=O)[O-])CC2)cc1", "Potency": "inconclusive: 25.1 µM [falling, partial curve, poor fit]"},
      {"smiles": "COc1ccc(C(CNC(=O)C(C)Oc2ccc(Br)cc2)N2CCCCC2)cc1", "note": "(configuration not stated)", "activity change, negative = inhibition": "inconclusive: -2.81%"},
      {"smiles": "Nc1ncnc2c1ncn2[C@@H]1O[C@H](CNCc2ccc(-c3cc(C(F)(F)F)ccc3Cl)o2)[C@@H](O)[C@H]1O", "activity change, negative = inhibition": "inconclusive: -19.4%"},
      {"smiles": "CCN(CC)Cc1c(O)ccc2c(=O)c(-c3ccccc3)coc12", "activity change, negative = inhibition": "inactive"},
      {"smiles": "O=c1[nH]c2ccc(NC(=S)Nc3ccccc3Cl)cc2[nH]1", "Potency": "inconclusive: 18.4 µM [falling, partial curve, poor fit]"},
      {"smiles": "CC(C)C(NCc1c(Cl)cccc1Cl)C(=O)O", "note": "(configuration not stated)", "Potency": "inconclusive: 3.55 µM [falling, single point]"},
      {"smiles": "O=C(NC(=S)N1CCCC1)c1ccccc1F", "activity change, negative = inhibition": "inconclusive: 2.68%"},
      {"smiles": "O=C(NCC(=O)N1CCC(Cc2ccccc2)CC1)c1ccc(Cl)cc1", "activity change, negative = inhibition": "inconclusive: -0.83%"},
      {"smiles": "CCOC(=O)c1c(C)[nH]c(C(=O)CSc2nnc(-c3cccs3)n2Cc2ccccc2)c1C", "activity change, negative = inhibition": "inactive"},
      {"smiles": "N#C/C(=N\\Nc1ccccc1)C(N)=S", "activity change, negative = inhibition": "inconclusive: 13.5%"},
      {"smiles": "COc1ccc(C2CC(c3cccs3)=Nc3ccccc3S2)cc1OC", "note": "(configuration not stated)", "Potency": "inconclusive: 0.082 µM [rising, full curve, poor fit]"},
      {"smiles": "C/C(=N\\NC(=O)COc1ccc(C(C)(C)C)cc1)c1ccc(-n2ccnc2)cc1", "activity change, negative = inhibition": "inactive"}
    ]}
  ]
}
